PubChem BioAssay AID1259254 | NCATS, 2017
Test: 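Finding genes that stop cells copying their DNA twice in one cycle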 (primary screen). System: human HCT116 colorectal cancer cells. Reagent: single siRNA against human genes. Time to read-out: 3 days. Measured: 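Nuclei stained with Hoechst and imaged; cell-cycle phase assigned by DNA content; G2 share scaled per plate, non-targeting siRNA 0%, GMNN siRNA 100%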. Scale: G2 robust z-score and G2 cells, % of GMNN control: higher = more G2 cells, more excess DNA replication. Active means: 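Active siRNAs have a G2 robust z of 5 or more median absolute deviations over the median, which in these data means about 38% or higher of GMNN control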.
In all, the deposit lists about 59,000 reagents; below is a random part of them. Over the whole deposit, about 1,550 (2.6%) are marked active. 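G2 share is only a proxy for re-replication; each gene was hit by three separate siRNAs, and active genes were retested.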 Unmarked entries are inactive. Reagents against one gene are numbered here. Further read-outs or replicates are left out here. Not stated in the record: the amount of reagent.

For IL18 #1 the deposit lists G2 robust z-score -0.646; G2 cells, % of GMNN control -1.58.
IL18 #2 gave G2 robust z-score -1.2; G2 cells, % of GMNN control -5.51.
Against IL18 #3 the deposit lists G2 robust z-score -1.04; G2 cells, % of GMNN control -4.34.
With knock-down of HOXB9 #1 the results were G2 robust z-score -0.267; G2 cells, % of GMNN control 1.09.
Against HOXB9 #2, the entry reads G2 robust z-score -0.765; G2 cells, % of GMNN control -2.42.
Against HOXB9 #3 the deposit lists G2 robust z-score -0.478; G2 cells, % of GMNN control -0.394.
HHIPL2 #1 gave G2 robust z-score 0.461; G2 cells, % of GMNN control 6.21.
With knock-down of HHIPL2 #2, the record shows G2 robust z-score 0.433; G2 cells, % of GMNN control 6.01.
After knock-down of HHIPL2 #3, the record shows G2 robust z-score -1.36; G2 cells, % of GMNN control -6.6.
For LMCD1 #1, the entry reads G2 robust z-score 1.61; G2 cells, % of GMNN control 14.3.
After knock-down of LMCD1 #2, the screen gave G2 robust z-score -0.915; G2 cells, % of GMNN control -3.47.
For LMCD1 #3 the deposit lists G2 robust z-score -0.823; G2 cells, % of GMNN control -2.82.
Knock-down of RPS3 #1 resulted in: G2 robust z-score 2.78; G2 cells, % of GMNN control 22.5.
Against RPS3 #2, the entry reads G2 robust z-score 1.95; G2 cells, % of GMNN control 16.7.
For RPS3 #3, the entry reads G2 robust z-score 4.11; G2 cells, % of GMNN control 31.8.

Not a retest: an excerpt of the list.
LMCD1 #3: G2 robust z-score = -0.823; G2 cells, % of GMNN control = -2.82
RPS3 #1: G2 robust z-score = 2.78; G2 cells, % of GMNN control = 22.5

More records follow.
Silencing of TNFRSF6B #1 resulted in: G2 robust z-score -0.55; G2 cells, % of GMNN control -0.905.
Knock-down of TNFRSF6B #2 gave: G2 robust z-score -0.103; G2 cells, % of GMNN control 2.24.
TNFRSF6B #3 gave G2 robust z-score 1.02; G2 cells, % of GMNN control 10.1.
For C16orf89 #1, the values are G2 robust z-score -0.285; G2 cells, % of GMNN control 0.965.
Against C16orf89 #2, the entry reads G2 robust z-score -1.01; G2 cells, % of GMNN control -4.17.
Depletion of C16orf89 #3 resulted in: G2 robust z-score 0.561; G2 cells, % of GMNN control 6.92.
ARNT #1 scored G2 robust z-score -0.932; G2 cells, % of GMNN control -3.59.
Against ARNT #2, the entry reads G2 robust z-score -0.343; G2 cells, % of GMNN control 0.551.
Against ARNT #3, the entry reads G2 robust z-score -0.39; G2 cells, % of GMNN control 0.224.
